Laboratory results taken from publication PMC4560804.
Results are given in words; binding and its absence hold for the method and conditions named. In cells and extracts the contact can be indirect. Binding calls can cover weak binding; strength is not graded here. Sequences can lack the tags named with a protein.

Protein sequences, listed by entry. Tags and fused reporters are not part of them. Lines headed by an entry give the natural chain unless they say otherwise; changes in a name come on top.
UniProt Q388B7: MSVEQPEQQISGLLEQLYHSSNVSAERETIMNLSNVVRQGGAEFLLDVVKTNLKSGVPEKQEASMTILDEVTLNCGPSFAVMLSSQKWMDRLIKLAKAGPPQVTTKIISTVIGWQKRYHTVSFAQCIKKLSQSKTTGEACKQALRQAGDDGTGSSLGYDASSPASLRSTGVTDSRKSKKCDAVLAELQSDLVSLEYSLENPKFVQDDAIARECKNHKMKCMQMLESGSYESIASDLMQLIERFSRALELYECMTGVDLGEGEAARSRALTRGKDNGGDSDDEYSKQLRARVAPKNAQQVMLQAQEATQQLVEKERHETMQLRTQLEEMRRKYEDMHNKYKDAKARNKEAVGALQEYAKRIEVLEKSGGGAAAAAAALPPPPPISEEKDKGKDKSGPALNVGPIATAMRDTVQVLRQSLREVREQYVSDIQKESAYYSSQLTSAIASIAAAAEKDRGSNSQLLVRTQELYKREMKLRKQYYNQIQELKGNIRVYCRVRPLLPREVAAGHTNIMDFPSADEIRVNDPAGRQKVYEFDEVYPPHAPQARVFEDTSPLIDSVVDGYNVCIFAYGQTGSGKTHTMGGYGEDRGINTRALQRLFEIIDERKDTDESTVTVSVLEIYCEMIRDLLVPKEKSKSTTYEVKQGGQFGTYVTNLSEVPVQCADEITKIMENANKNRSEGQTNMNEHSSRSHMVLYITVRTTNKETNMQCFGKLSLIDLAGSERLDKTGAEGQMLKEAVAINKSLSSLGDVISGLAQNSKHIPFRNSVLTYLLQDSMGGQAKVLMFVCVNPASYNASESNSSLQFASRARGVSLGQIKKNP

Biological target: TbKIFC1 (C-terminal kinesin of Trypanosoma brucei) (T. brucei (endogenous in T. brucei cells)) (UniProt Q388B7)
Test: proximity ligation; Duolink ligation assay with anti-TbKIFC1 and anti-APOL1 antibodies on T. brucei after 1-h incubation with 10 ug/ml rAPOL1; signal means proximity below 40 nm; only the binder purified

B1: recombinant APOL1 (His6-tagged APOL1 E28-L398) (protein, UniProt O14791 28-398)
chain: EEAGARVQQNVPSGTDTGDPQSKPLGDWAAGTMDPESSIFIEDAIKYFKEKVSTQNLLLLLTDNEAWNGFVAAAELPRNEADELRKALDNLARQMIMKDKNWHDKGQQYRNWFLKEFPRLKSELEDNIRRLRALADGVQKVHKGTTIANVVSGSLSISSGILTLVGMGLAPFTEGGSLVLLEPGMELGITAALTGITSSTMDYGKKWWTQAQAHDLVIKSLDKLKEVREFLGENISNFLSLAGNTYQLTRGIGKDIRALRRARANLQSVPHASASRPRVTEPISAESGEQVERVNEPSILEMSRGVKLTDVAPVSFFLVLDVVYLVYESKHLHEGAKSETAEELKKVAQELEEKLNILNNNYKILQADQEL
For B1, the binding was “binds”.
